Source: US11180485B2, “Diaryl-azole compound and formulation for controlling harmful organism” (Nippon Soda Co., Ltd., priority 2016, dated 2021)
Some of these results come from one statement about several compounds together.

What was measured:
[1] = tested on: Mythimna separata (Pseudaletia separata); experiment: Test Example 11: efficacy test against Mythimna separata (Pseudaletia separata), seed treatment test; format: in vivo; settings: seed treatment: 0.1 g compound in 2 mL acetone on 10 g wheat seeds; larvae released after 7 days; counted after 3 days
Rhopalosiphum padi = experiment: Test Example 12: efficacy test against Rhopalosiphum padi, seed treatment test; format: in vivo; settings: seed treatment: 0.1 g compound in 2 mL acetone on 10 g wheat seeds; adults released after 7 days; counted after 6 days

SMILES | controlling rate against first-instar larvae of Mythimna separata (Pseudaletia separate) [1] | controlling rate against Rhopalosiphum padi (Rhopalosiphum padi)
CCS(=O)(=O)c1ccc(-n2cncn2)nc1-c1ncc(-c2ccc(OC(F)(F)F)cc2)n1C [a-2] | ≥ 80% | –
CCS(=O)(=O)c1ccc(-n2cncn2)cc1-c1ncc(-c2ccc(OC(F)(F)F)cc2)n1C [a-5] | – | ≥ 80%
CCS(=O)(=O)c1ccc(-n2cncn2)cc1-c1ncc(-c2ccc(SC(F)(F)F)cc2)n1C [a-6] | – | ≥ 80%
CCS(=O)(=O)c1ccc(-n2cncn2)cc1-c1ncc(-c2ccc(C(F)(F)F)nc2)n1C [a-7] | – | ≥ 80%
